In patent publication US20240383982A1:
These are yes or no findings as the source states them, for the method shown.

How the values were obtained:
[1] = biological target: T1, B7H4-IgV/B7H3-IgC; assay: flow cytometry, HEK cells transiently transfected with B7H4-IgV/B7H3-IgC [panel B7H4-IgV/B7H3-IgC]
T1 sequence (full-length chimeric protein on cells): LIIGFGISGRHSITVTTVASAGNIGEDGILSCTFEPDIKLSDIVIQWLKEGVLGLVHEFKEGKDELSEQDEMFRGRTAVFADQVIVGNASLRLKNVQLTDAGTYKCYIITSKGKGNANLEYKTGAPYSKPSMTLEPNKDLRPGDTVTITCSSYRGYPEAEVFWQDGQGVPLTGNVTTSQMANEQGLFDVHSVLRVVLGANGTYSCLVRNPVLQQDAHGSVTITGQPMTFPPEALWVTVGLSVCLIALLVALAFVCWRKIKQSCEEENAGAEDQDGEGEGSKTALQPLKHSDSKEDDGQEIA

[2] = biological target: human B7H4, full length, on cells (human) (UniProt Q7Z7D3); assay: flow cytometry on HCC1954 tumor cells [HCC1954 panels]
[3] = biological target: B7H3-IgV/B7H4-IgC; assay: flow cytometry, HEK cells transiently transfected with B7H3-IgV/B7H4-IgC [panel B7H3-IgV/B7H4-IgC]
[4] = biological target: human B7H4, full length, on cells (human) (UniProt Q7Z7D3); assay: flow cytometry, HEK cells transiently transfected with human B7H4 [panel B7H4]

binding [1]: no binding (tested: 30 µg/ml)
binding [2]: no binding (tested: 30 µg/ml)
binding [3]: no binding (tested: 30 µg/ml)
binding [4]: no binding (tested: 30 µg/ml)
B1: IgG1-b12-K409R (antibody, V domains shown)
VH: QVQLVQSGAEVKKPGASVKVSCQASGYRFSNFVIHWVRQAPGQRFEWMGWINPYNGNKEFSAKFQDRVTFTADTSANTAYMELRSLRSADTAVYYCARVGPYSWDDSPQDNYYMDVWGKGTTVIVSS
VL: EIVLTQSPGTLSLSPGERATFSCRSSHSIRSRRVAWYQHKPGQAPRLVIHGVSNRASGISDRFSGSGSGTDFTLTITRVEPEDFALYYCQVYGASSYTFGQGTKLERKR
